The other results are listed elsewhere or left out. Results with a measured potency or affinity are listed apart.
Test system: Acinetobacter baumannii
Conditions: Concentration 20 uM; ASSAY_TEST Inhibition of Bacterial Growth; detection method Absorption (OD600); MEDIA CAMHB; plate type 384well; NBS; CORNING #3640; time 18 hr

Question: For `CN(C)CCOC(c1ccccc1)c1ccccc1.Cl` [DIPHENHYDRAMINE HYDROCHLORIDE], which Inhibition is on record?
Answer: The Inhibition was 12.18%.

Question: Which Inhibition does the source give for `CCOC(=O)C1(CCCCCCOc2ccc(Cl)cc2)CO1` (stereo not drawn) [rac-ETOMOXIR] here?
Answer: Its Inhibition is 12.11%.

Question: With `O=C(C1CCCCC1)N1CC(=O)N2CCc3ccccc3C2C1` (stereo not drawn) [PRAZIQUANTEL] as the compound, how does the Inhibition read?
Answer: Its Inhibition is 17.48%.

Question: `CC(C)(C#N)c1cc(Cn2cncn2)cc(C(C)(C)C#N)c1` [ANASTROZOLE] was tested. Which Inhibition did it give?
Answer: The Inhibition was -0.7%.

Question: Which Inhibition does the source give for `Nc1ccn([C@H]2CC[C@@H](CO)O2)c(=O)n1` [ZALCITABINE] here?
Answer: Its Inhibition is 3.66%.

Question: `Oc1ccc(/C=C/c2cc(O)cc(O)c2)cc1` [RESVERATROL] was tested. Which Inhibition did it give?
Answer: The Inhibition was 17.94%.

Question: `COc1ccc(/C=C/C(=O)Nc2ccccc2C(=O)O)cc1OC` was tested. Which Inhibition did it give?
Answer: Its Inhibition is 26.4%.

Question: How did the Inhibition turn out when `Cl.O=C(NCC1CCCCN1)c1cc(OCC(F)(F)F)ccc1OCC(F)(F)F` (stereo not drawn) was run?
Answer: The Inhibition was 22.09%.

Question: `COc1ccc(C(=O)NCc2ccc(OCCN(C)C)cc2)cc1OC.Cl` was tested. Which Inhibition did it give?
Answer: The Inhibition was 1.28%.

Question: Which Inhibition does the source give for `CN1CCN(C2=Nc3cc(F)ccc3Cc3ccccc32)CC1` [FLUPERLAPINE] here?
Answer: Its Inhibition is 26.43%.

Question: How did the Inhibition turn out when `CC(C[N+](C)(C)C)OC(N)=O.[Cl-]` (stereo not drawn) [BETHANECHOL CHLORIDE] was run?
Answer: The Inhibition was 5.89%.

Question: How did the Inhibition turn out when `COc1cc(C[C@@H](CO)[C@H](CO)Cc2ccc(O)c(OC)c2)ccc1O` [(+)-SECOISOLARICIRESINOL] was run?
Answer: Its Inhibition is 17.28%.

Question: With `Cc1cccc(C)c1NC(=O)C(C)N` (stereo not drawn) [TOCAINIDE] as the compound, how does the Inhibition read?
Answer: Its Inhibition is 30.81%.

Question: For `Cl.c1ccc(CC2=NCCN2)cc1` [TOLAZOLINE HYDROCHLORIDE], which Inhibition is on record?
Answer: The Inhibition was 9.03%.

Question: How did the Inhibition turn out when `OCc1cccnc1` [NICOTINYL ALCOHOL] was run?
Answer: The Inhibition was 12.41%.

Question: With `Cl.Clc1ccc2nsnc2c1NC1=NCCN1` [TIZANIDINE HYDROCHLORIDE] as the compound, how does the Inhibition read?
Answer: Its Inhibition is 4.87%.

Question: Which Inhibition does the source give for `Cc1c(C(=O)NN2CCCCC2)nn(-c2ccc(Cl)cc2Cl)c1-c1ccc(I)cc1` here?
Answer: The Inhibition was 10.46%.

Question: Which Inhibition does the source give for `O=C(O)CCNC(=O)c1ccc(N=Nc2ccc(O)c(C(=O)O)c2)cc1` here?
Answer: Its Inhibition is 12.14%.

Question: Which Inhibition does the source give for `Cl.Cn1c(NCCN(CCO)CCCc2ccc([N+](=O)[O-])cc2)cc(=O)n(C)c1=O` here?
Answer: Its Inhibition is 7.77%.

Question: For `C[C@]12C=CC(=O)C=C1CC[C@@H]1[C@@H]2[C@@H](O)C[C@@]2(C)[C@H]1CC[C@]2(O)C(=O)CO` [PREDNISOLONE], which Inhibition is on record?
Answer: The Inhibition was 15.17%.

Question: With `CCC(CO)NCCNC(CC)CO` (stereo not drawn) as the compound, how does the Inhibition read?
Answer: Its Inhibition is 29.88%.

Question: How did the Inhibition turn out when `CN1CCN(C2=Nc3ccccc3Oc3ccc(Cl)cc32)CC1.O=C(O)CCC(=O)O` [LOXAPINE SUCCINATE] was run?
Answer: The Inhibition was 23.44%.

Question: For `CC1=C(/C=C/C(C)=C/C=C/C(C)=C/C(=O)O)C(C)(C)CCC1` [TRETINOIN], which Inhibition is on record?
Answer: The Inhibition was 15.06%.
